For one molecule, binding results are on record in US20240302348A1.

Results are given in words; binding and its absence hold for the method and conditions named. Some entries that bind do so weakly or less than the wild type.

This assay deals with T1, human B7-H4 (V-set domain-containing T-cell activation inhibitor 1) (human) (UniProt Q7Z7D3).
T1 sequence: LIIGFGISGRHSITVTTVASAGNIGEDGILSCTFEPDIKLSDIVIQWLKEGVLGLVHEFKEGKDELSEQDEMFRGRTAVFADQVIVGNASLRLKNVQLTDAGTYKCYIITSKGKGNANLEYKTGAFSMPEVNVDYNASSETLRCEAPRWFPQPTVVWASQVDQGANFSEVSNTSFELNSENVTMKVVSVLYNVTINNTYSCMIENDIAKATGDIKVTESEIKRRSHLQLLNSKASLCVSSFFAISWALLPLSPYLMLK
The assay is described as follows: IHC for bound IgG, membrane optical density, xenograft tumors.

B1: the ADC without payload (anti-B7H4 ADC antibody without cytotoxic payload) (antibody, human IgG1, kappa, V domains shown)
VH: QVQLQQWGAGLLKPSETLSLACTVYGGSFSGYYWNWIRQPPGKGLEWIGEINHSGSTSYNPSLKSRVTISVDTSKNQFSLKLSSVTAADTAVYYCARVLYNWNVDSWGQGTLVTVSS
VL: DIQMTQSPSSLSASVGDRVTITCRASQDIRNDVGWYQQKPGKAPKRLIYAASRLQSGVPSRFSGSGSGTEFTLTISSLQPEDFATYYCLQHNSYPRTFGQGTKVEIKR
With B1, the binding entry is “binds”.
